Results reported in US20230312680A1.
These are yes or no findings as the source states them, for the method shown. A result given as binding can be weak or reduced; the word gives no strength. Ends that are not written are not given here.

These binders were tested against HLA-B*44:02 (human) (assay: UV-ligand exchange, b2m ELISA; grade of exchange yield).

binding, binds:
KESIPRWYY [… (SEQ ID No 213)]
VEQTRAGSLL [… (SEQ ID No 214)]
REASGLLSL [… (SEQ ID No 396)]
REGDTVQLL [… (SEQ ID No 397)]
SFEQVVNELF [… (SEQ ID No 398)]
RELLHLVTL [… (SEQ ID No 399)]
GEIEIHLL [GEIEIHLL (SEQ ID No 400)]
RELANDELIL [… (SEQ ID No 402)]
EEAQWVRKY [… (SEQ ID No 403)]
NEAIMHQY [NEAIMHQY (SEQ ID No 404)]
NEIWTHSY [NEIWTHSY (SEQ ID No 405)]
EDGRLVIEF [… (SEQ ID No 406)]
AEHEGVSVL [… (SEQ ID No 407)]
LEKALQVF [LEKALQVF (SEQ ID No 408)]
REFVLSKGDAGL [… (SEQ ID No 409)]
SEDPSKLEA [… (SEQ ID No 410)]
LELPPILVY [… (SEQ ID No 411)]
QEILTQVKQ [… (SEQ ID No 412)]
IEALSGKIEL [… (SEQ ID No 413)]
EDAALFKAW [… (SEQ ID No 414)]
REEDAALFKAW [… (SEQ ID No 415)]
SEEETRVVF [… (SEQ ID No 416)]
AEHFSMIRA [… (SEQ ID No 417)]
FEDAQGHIW [… (SEQ ID No 418)]
HEFGHVLGL [… (SEQ ID No 419)]
FESHSTVSA [… (SEQ ID No 420)]
GEPATTVSL [… (SEQ ID No 421)]
SETTFSLIF [… (SEQ ID No 422)]
SEVPTGTTA [… (SEQ ID No 423)]
TEFPLFSAA [… (SEQ ID No 424)]
SEVPLPMAI [… (SEQ ID No 425)]
PEKTTHSF [PEKTTHSF (SEQ ID No 426)]
HESSSHHDL [… (SEQ ID No 427)]
REKFIASVI [… (SEQ ID No 429)]
AEQDPDELNKA [… (SEQ ID No 431)]
SDSQVRAF [SDSQVRAF (SEQ ID No 433)]
KEAIREHQM [… (SEQ ID No 434)]
REEFVSIDHL [… (SEQ ID No 435)]
REPGDIFSEL [… (SEQ ID No 436)]
TEAVVTNEL [… (SEQ ID No 437)]
SEVDSPNVL [… (SEQ ID No 438)]

Each binder was assayed against HLA-A*03:01 (human) in the same assay as above.

binding, binds:
RLFTSPIMTK [… (SEQ ID No 100)]
RVFTSSIKTK [… (SEQ ID No 101)]
SVLTSSLVK [… (SEQ ID No 102)]
VLADSVTTK [… (SEQ ID No 104)]
RLFSWLVNR [… (SEQ ID No 105)]
AAFVPLLLK [… (SEQ ID No 106)]
RLQEWKALK [… (SEQ ID No 107)]
KTFTIKRFLAK [… (SEQ ID No 109)]
SAAPPSYFR [… (SEQ ID No 110)]
RTEEVLLTFK [… (SEQ ID No 256)]
VTADHSHVF [… (SEQ ID No 257)]
GAYAHTVNR [… (SEQ ID No 258)]
KTLELRVAY [… (SEQ ID No 259)]
GTNTVILEY [… (SEQ ID No 260)]
HTFGLFYQR [… (SEQ ID No 261)]
RSRLNPLVQR [… (SEQ ID No 262)]
SSSSATISK [… (SEQ ID No 263)]
AIKVIPTVFK [… (SEQ ID No 264)]
QIHDHVNPK [… (SEQ ID No 265)]
ISYSGQFLVK [… (SEQ ID No 266)]
VTDLISPRK [… (SEQ ID No 267)]
RLKGDAWVYK [… (SEQ ID No 269)]
AVFNPRFYRTY [… (SEQ ID No 270)]
RMFADDLHNLNK [… (SEQ ID No 271)]
RQPERTILRPR [… (SEQ ID No 272)]
RVNAIPFTY [… (SEQ ID No 273)]
KTFPASTVF [… (SEQ ID No 274)]
STTFPTLTK [… (SEQ ID No 275)]
VSKTTGMEF [… (SEQ ID No 276)]
TTALKTTSR [… (SEQ ID No 277)]
NLSSITHER [… (SEQ ID No 278)]
SVSSETTKIKR [… (SEQ ID No 279)]
SVSGVKTTF [… (SEQ ID No 280)]
RAKELEATF [… (SEQ ID No 281)]
IVQEPTEEK [… (SEQ ID No 283)]
